Among all 53,000 sequences or so, about 3,700 (7%) were called active.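 Rule for the calls: active = gene knockdowns whose robust z-score for IL-1 alpha signal is at least 2 or at most -2, so actives lie on both sides; inactive = the rest.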 This is one part of the list.

The assay in a line: Components of the Cytosolic LPS Sensing Pathway: Gene Identification via Genome-wide siRNA Screen.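 Note: robust z of the log signal after scaling to non-targeting control siRNA wells of the plate.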 The settings on record: RAW264.7 macrophages, IL-1a HTRF, actives lie on both sides, screened at 100 nM (by protocol), cells primed 5 h with Pam3CSK4 first. Summed up: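 RAW264.7 mouse macrophages reverse-transfected with single siRNAs (100 nM final) for 48h, primed with Pam3CSK4 for 5 hours, then transfected with LipidA for 24 hour. Supernatant IL-1a read by HTRF; values normalized to negative-control median, log-transformed robust z-scores.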
A general note: Time-resolved FRET reads energy transfer from a long-lived donor to a nearby acceptor.
For GCAGCAGCAAAUGUUCUAUTT against Olfr384, the z-score was inactive: 0.763.

With GGAGUAUGGAACAAGCCAGTT against Plxnb3, the z-score was inactive: -0.372. Then CCUUGACCUUAAUGUCUUCTT against Fgf23, with active: 2.05. Then GGGAGAUCACCACCAUCCUTT against Bsx, with inactive: -1.79; and GGAGUUACCAAUUUUGAAATT against Txndc12, with inactive: 0.0872; and CGACUAACAAAUUUGGUGATT against Tfec, with inactive: -0.353. Then GCAGUUGUACUGCUAGAAATT against Oprl1, with inactive: 1.52. For GGGAAGAAGAAAUACUGCGTT against Gzmg, the z-score was inactive: 1.76. As for CCGUCACACAACACUGAUGTT against Ctla4, the figure is inactive: -0.0386; as for GGAGUUUGGUAAAAUUGACTT against Dhrs7, inactive: -1.7; as for GGUUUUCUGCAUAGAUUUUTT against Sgtb, inactive: 1.01. Then GGAGCUGAUUCUGAUGAAGTT against Fbxo31, with inactive: -0.577; and CGUGAUCGUGCGUUCCAACTT against Chrnb4, with active: 3.11. Then GGUCUUCGUGCUUUGUCAUTT against Slco2a1, with inactive: -1.99; and GGUUCUUUCGAGAAUGGACTT against Nod1, with inactive: -0.145; and GGAUGCAACUAAAAUCAGCTT against Vstm2b, with inactive: -0.567.

Turning to GCAGUAUCUACAAGAGGAGTT against Septin12, the z-score was inactive: 1.13. For GUGCCUAGUUUUCUGCAUGTT against Vmn1r85, the z-score was inactive: 0.309.

GGGAUAGCUCUGCUCAGCATT against Olfr821: the z-score was inactive: -0.771. As for GGGACAAAGGUGUGAACUCTT against Dpysl4, the figure is inactive: 0.0855; as for GGAGAUUUCCUGUAACUUUTT against Osbpl3, inactive: 0.369.

Consider GGACAGAAAGCAAAGGCACTT against Mchr1, for which the z-score is inactive: -1.12.

On to GGUUGAUCUGCAUUUUAUGTT against Slc4a10, for which the z-score was inactive: -0.223. Then GCGACAAGAGGCUUUAGCATT against Selenos, with inactive: 0.692; and GCAAUCGAUGCAUUUAAUGTT against Pex5l, with inactive: 0.253; and GGGACUCUAAAAACAAUGATT against Zkscan14, with active: 2.67.

Turning to GCAUGGAGAGAACCUGAAATT against Trim69, the z-score was inactive: -0.801.

On to GCUCAUGUAGGAUGUAUAUTT against Olfr146, for which the z-score was inactive: -0.483. As for GGAGUUAUGUUAUACCUCCTT against Dazl, the z-score is inactive: 1.57.

In the case of GGCCGUCACUACUCUGAAATT against Mgst2, the z-score was active: -2.29.

As for GGAGCACCAUUUCAGGAUATT against Cfap43, the z-score was inactive: 0.691. As for GCACUUGUCUUGAUUACAUTT against Fbxo4, the z-score is inactive: 1.08. As for CGUGUCGCACAGGUACUUUTT against Ccnq, the figure is inactive: -1.71.

For GGACGGUGACAAGAACAACTT against Tnnc1, the z-score is inactive: 1.72. Regarding GGUCAUGACCCAUGUCAGCTT against Junb, the z-score is inactive: -0.699. As to CCAUCUCCUUAUGGGCAAUTT against Stat6, the z-score is inactive: 1.59. As to CGAUGAGAGUCCACUCCCATT against Cox18, the z-score was active: -3.19. Then GGAAUGACAAGAUUAUUGUTT against Ercc3, with inactive: 0.157; and CCAUGCAUCUAAGUCUCGATT against Trpm3, with inactive: 0.625; and CCGUGACCUAUAACGAAGATT against Fcf1, with inactive: -0.967. Then GGAAUACAGGUUUUCUUAATT against Raf1, with inactive: 0.0212. As for CCCAGAGCAUUCCUAUUACTT against Klrg2, the figure is active: -2.84.

For the sequence GGUUUUAGAGGAGUUCUCCTT against Nectin1, the z-score was inactive: -0.652.

For the sequence GGAGAGGACUGUAAAGUGCTT against Tafa4, the z-score is inactive: 1.52. As for GCAAGUUCGAAUCCUCCGUTT against Dach2, the z-score was active: 4.72. As for GGGACAAAACCUUGACAGUTT against Vmn1r214, the figure is inactive: 0.181; as for GAAAGACAAGAAGCAGAUGTT against Olig2, inactive: 1.05; as for CCGGUGGUAGUUGGUUUAATT against Atp1b1, inactive: 1.55. As for CCGAAGCAUUUUCCCAUCUTT against Slc22a20, the figure is inactive: -0.293; as for CCUCUGUUUGUGCGCCAUATT against Uqcrfs1, inactive: 0.402; as for CCCAUAUUUGUGGUAAACATT against Pcdh17, inactive: 0.245.

For GGACAAUUUAACCAUCGUGTT against Tspan5, the z-score was inactive: 0.939.

Regarding GGGUAAACACCCAUUUAGCTT against Lbx2, the z-score was inactive: -0.156.

On to GGUUACCUACCUGAUGCCATT against Cd6, for which the z-score was inactive: -0.0761. As for GGAUUGUACGCUUUUAUGATT against Fzd1, the figure is inactive: 0.92. As for CGUAGUCGAUUCAGGAGAGTT against Gm10439, the figure is inactive: -0.356. As for GCAGUCUGGUUCUCUCAAATT against Cryl1, the figure is inactive: 1.13. Consider GGACUCAUGUUCAACACAGTT against Dimt1, for which the z-score was inactive: -0.87. Then CGCUAGUUUGGACGGUUUUTT against Odf3, with inactive: 0.523; and CCUACUAGAUUCCUACUUUTT against Cenpo, with inactive: 1.65. As for CCCUAGGCCUUUUUUCUGCTT against Olfr930, the z-score was inactive: 0.0834. As for GGUGAAAAGCAGCUAACAATT against Fam135a, the figure is inactive: -1.6; as for GGACAAGUACCAGCAGCAGTT against Spry2, inactive: 0.332; as for CCCUAGAAUGGGAAUGUCATT against Tmem116, inactive: -0.407.

In the case of GGCUGUGCAUACCAUGUUGTT against Dse, the z-score is inactive: 0.181. For GGCCGAUUGUUGGACAUUCTT against Card11, the z-score is inactive: 0.00438. Then GGAUAUCAAUAGCCUCAACTT against Stx5a, with inactive: -0.804; and GGAAUUCAAGGGCUCCACATT against Grip1, with inactive: 0.378. As for CCUCAAACUCGGUUUGAUUTT against Acp6, the figure is inactive: -0.773.

Source of the values: PubChem BioAssay AID1508600 (Functional Genomics Laboratory (NCATS/FGL), 2020).
